CN111363043A
No constants are given. Whether binding was seen depends on the method and setting. Some results given as binding are weak or reduced against the parent protein; the word gives no strength.

Target: T1, CD20-BSA (human)
T1 sequence (peptide, conjugated to BSA (preparation and coupling chemistry not described)): EPPQDQESSPIENDSSP
Assay: ELISA screening of hybridoma supernatants on CD20-BSA (three rounds)

B1: 抗CD20蛋白单克隆抗体 (secreted by mouse hybridoma cell line AbM58020-32A8-PU, CGMCC NO.17491) (antibody, V domains shown)
VH: EVKLQESGPSLVKPGASVKISCKASGNTFTDYYMNWVRQSHGQSLEWIGRFIPSTAKTNYNHKFKDKATLTLDTSLSTAYMQLNSLTSEDSAVYYCRSDFAFWGQGTLVTVSA
VL: DILMTQSPLSLSITIGQPASISCKSSQSLLYSNGKTYLNWLLQRPGQSPKRLIYIVSKLDSGVPDRFTGSGSGTDFTLKISRVEAEDLGVYYCGQGTHYPPTFGGGTKLEIK
In the case of B1, the binding is reported as “binds”.
